Results taken from publication doi:10.1101/2024.01.24.576984.
These are yes or no findings as the source states them, for the method shown. Binding seen in cells or lysates may run through a third protein. A yes stands for co-enrichment or nearness to the bait. Other partners may have been found. Blank lines part the entries; values can stand above or below the binder they belong to.

By UniProt entry, the sequences of proteins in these tests, tags left out. Where a name states a change or a piece, a line headed by the entry shows the natural chain unless it says otherwise. Residues count along the entry.
UniProt Q9NVR2: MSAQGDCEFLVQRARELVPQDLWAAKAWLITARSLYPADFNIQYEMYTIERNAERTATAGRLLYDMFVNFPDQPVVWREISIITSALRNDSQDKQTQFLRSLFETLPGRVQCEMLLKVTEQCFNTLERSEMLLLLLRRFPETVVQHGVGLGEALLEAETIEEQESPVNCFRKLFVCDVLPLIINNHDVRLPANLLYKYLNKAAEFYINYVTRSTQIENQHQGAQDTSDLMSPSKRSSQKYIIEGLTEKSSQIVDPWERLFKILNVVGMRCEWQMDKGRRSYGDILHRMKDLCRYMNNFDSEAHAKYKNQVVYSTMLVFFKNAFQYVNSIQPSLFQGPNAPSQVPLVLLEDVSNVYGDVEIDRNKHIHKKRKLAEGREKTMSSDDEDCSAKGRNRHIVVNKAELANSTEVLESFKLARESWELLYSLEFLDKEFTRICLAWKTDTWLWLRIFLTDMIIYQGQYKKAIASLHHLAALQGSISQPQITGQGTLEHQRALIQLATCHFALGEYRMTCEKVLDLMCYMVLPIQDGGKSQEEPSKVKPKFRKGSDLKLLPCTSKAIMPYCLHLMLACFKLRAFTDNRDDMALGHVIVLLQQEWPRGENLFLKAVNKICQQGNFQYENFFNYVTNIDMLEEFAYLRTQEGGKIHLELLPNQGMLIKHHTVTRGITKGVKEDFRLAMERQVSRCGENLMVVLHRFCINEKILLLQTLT
UniProt Q9NVM9, residues 1-648: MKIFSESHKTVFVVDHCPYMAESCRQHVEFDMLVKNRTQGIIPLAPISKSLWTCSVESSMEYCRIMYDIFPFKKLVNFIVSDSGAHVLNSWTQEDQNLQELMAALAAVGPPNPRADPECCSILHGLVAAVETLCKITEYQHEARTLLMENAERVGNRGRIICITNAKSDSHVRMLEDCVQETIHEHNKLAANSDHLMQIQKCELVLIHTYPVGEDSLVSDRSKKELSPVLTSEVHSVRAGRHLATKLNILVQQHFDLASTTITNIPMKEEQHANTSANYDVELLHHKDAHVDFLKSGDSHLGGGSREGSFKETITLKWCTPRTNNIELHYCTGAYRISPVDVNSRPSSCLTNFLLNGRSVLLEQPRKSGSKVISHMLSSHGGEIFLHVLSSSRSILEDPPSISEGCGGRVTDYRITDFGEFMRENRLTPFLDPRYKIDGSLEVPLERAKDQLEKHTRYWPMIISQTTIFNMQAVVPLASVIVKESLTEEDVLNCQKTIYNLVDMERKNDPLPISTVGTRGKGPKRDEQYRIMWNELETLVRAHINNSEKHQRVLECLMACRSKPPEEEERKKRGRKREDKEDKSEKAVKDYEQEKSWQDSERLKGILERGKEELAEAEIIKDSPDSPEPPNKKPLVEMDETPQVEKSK

Key:
INTS10-C2S (human) = INTS10-C2S (human) (UniProt Q9NVR2); assay: affinity purification with mass spectrometry
2SC-INTS13ΔC (human) = 2SC-INTS13ΔC (human) (UniProt Q9NVM9); assay: affinity purification with mass spectrometry

- binding (INTS10-C2S (human)): binds
B1: ZNF687 (protein, UniProt Q8N1G0 1-1237)
chain: MGDMKTPDFDDLLAAFDIPDIDANEAIHSGPEENEGPGGPGKPEPGVGSESEDTAAASAGDGPGVPAQASDHGLPPPDISVVSVIVKNTVCPEQSEALAGGSAGDGAQAAGVTKEGPVGPHRMQNGFGSPEPSLPGTPHSPAPPSGGTWKEKGMEGKTPLDLFAHFGPEPGDHSDPLPPSAPSPTREGALTPPPFPSSFELAQENGPGMQPPVSSPPLGALKQESCSPHHPQVLAQQGSGSSPKATDIPASASPPPVAGVPFFKQSPGHQSPLASPKVPVCQPLKEEDDDEGPVDKSSPGSPQSPSSGAEAADEDSNDSPASSSSRPLKVRIKTIKTSCGNITRTVTQVPSDPDPPAPLAEGAFLAEASLLKLSPATPTSEGPKVVSVQLGDGTRLKGTVLPVATIQNASTAMLMAASVARKAVVLPGGTATSPKMIAKNVLGLVPQALPKADGRAGLGTGGQKVNGASVVMVQPSKTATGPSTGGGTVISRTQSSLVEAFNKILNSKNLLPAYRPNLSPPAEAGLALPPTGYRCLECGDAFSLEKSLARHYDRRSMRIEVTCNHCARRLVFFNKCSLLLHAREHKDKGLVMQCSHLVMRPVALDQMVGQPDITPLLPVAVPPVSGPLALPALGKGEGAITSSAITTVAAEAPVLPLSTEPPAAPATSAYTCFRCLECKEQCRDKAGMAAHFQQLGPPAPGATSNVCPTCPMMLPNRCSFSAHQRMHKNRPPHVCPECGGNFLQANFQTHLREACLHVSRRVGYRCPSCSVVFGGVNSIKSHIQTSHCEVFHKCPICPMAFKSGPSAHAHLYSQHPSFQTQQAKLIYKCAMCDTVFTHKPLLSSHFDQHLLPQRVSVFKCPSCPLLFAQKRTMLEHLKNTHQSGRLEETAGKGAGGALLTPKTEPEELAVSQGGAAPATEESSSSSEEEEVPSSPEPPRPAKRPRRELGSKGLKGGGGGPGGWTCGLCHSWFPERDEYVAHMKKEHGKSVKKFPCRLCERSFCSAPSLRRHVRVNHEGIKRVYPCRYCTEGKRTFSSRLILEKHVQVRHGLQLGAQSPGRGTTLARGSSARAQGPGRKRRQSSDSCSEEPDSTTPPAKSPRGGPGSGGHGPLRYRSSSSTEQSLMMGLRVEDGAQQCLDCGLCFASPGSLSRHRFISHKKRRGVGKASALGLGDGEEEAPPSRSDPDGGDSPLPASGGPLTCKVCGKSCDSPLNLKTHFRTHGMAFIRARQGAVGDN

- binding (2SC-INTS13ΔC (human)): binds
B2: TSPYL1 (protein, UniProt Q9H0U9 1-437)
chain: MSGLDGVKRTTPLQTHSIIISDQVPSDQDAHQYLRLRDQSEATQVMAEPGEGGSETVALPPPPPSEEGGVPQDAAGRGGTPQIRVVGGRGHVAIKAGQEEGQPPAEGLAAASVVMAADRSLKKGVQGGEKALEICGAQRSASELTAGAEAEAEEVKTGKCATVSAAVAERESAEVVKEGLAEKEVMEEQMEVEEQPPEGEEIEVAEEDRLEEEAREEEGPWPLHEALRMDPLEAIQLELDTVNAQADRAFQQLEHKFGRMRRHYLERRNYIIQNIPGFWMTAFRNHPQLSAMIRGQDAEMLRYITNLEVKELRHPRTGCKFKFFFRRNPYFRNKLIVKEYEVRSSGRVVSLSTPIIWRRGHEPQSFIRRNQDLICSFFTWFSDHSLPESDKIAEIIKEDLWPNPLQYYLLREGVRRARRRPLREPVEIPRPFGFQSG

- binding (2SC-INTS13ΔC (human)): binds
B3: ZEB2 (protein, UniProt O60315 1-1214)
chain: MKQPIMADGPRCKRRKQANPRRKNVVNYDNVVDTGSETDEEDKLHIAEDDGIANPLDQETSPASVPNHESSPHVSQALLPREEEEDEIREGGVEHPWHNNEILQASVDGPEEMKEDYDTMGPEATIQTAINNGTVKNANCTSDFEEYFAKRKLEERDGHAVSIEEYLQRSDTAIIYPEAPEELSRLGTPEANGQEENDLPPGTPDAFAQLLTCPYCDRGYKRLTSLKEHIKYRHEKNEENFSCPLCSYTFAYRTQLERHMVTHKPGTDQHQMLTQGAGNRKFKCTECGKAFKYKHHLKEHLRIHSGEKPYECPNCKKRFSHSGSYSSHISSKKCIGLISVNGRMRNNIKTGSSPNSVSSSPTNSAITQLRNKLENGKPLSMSEQTGLLKIKTEPLDFNDYKVLMATHGFSGTSPFMNGGLGATSPLGVHPSAQSPMQHLGVGMEAPLLGFPTMNSNLSEVQKVLQIVDNTVSRQKMDCKAEEISKLKGYHMKDPCSQPEEQGVTSPNIPPVGLPVVSHNGATKSIIDYTLEKVNEAKACLQSLTTDSRRQISNIKKEKLRTLIDLVTDDKMIENHNISTPFSCQFCKESFPGPIPLHQHERYLCKMNEEIKAVLQPHENIVPNKAGVFVDNKALLLSSVLSEKGMTSPINPYKDHMSVLKAYYAMNMEPNSDELLKISIAVGLPQEFVKEWFEQRKVYQYSNSRSPSLERSSKPLAPNSNPPTKDSLLPRSPVKPMDSITSPSIAELHNSVTNCDPPLRLTKPSHFTNIKPVEKLDHSRSNTPSPLNLSSTSSKNSHSSSYTPNSFSSEELQAEPLDLSLPKQMKEPKSIIATKNKTKASSISLDHNSVSSSSENSDEPLNLTFIKKEFSNSNNLDNKSTNPVFSMNPFSAKPLYTALPPQSAFPPATFMPPVQTSIPGLRPYPGLDQMSFLPHMAYTYPTGAATFADMQQRRKYQRKQGFQGELLDGAQDYMSGLDDMTDSDSCLSRKKIKKTESGMYACDLCDKTFQKSSSLLRHKYEHTGKRPHQCQICKKAFKHKHHLIEHSRLHSGEKPYQCDKCGKRFSHSGSYSQHMNHRYSYCKREAEEREAAEREAREKGHLEPTELLMNRAYLQSITPQGYSDSEERESMPRDGESEKEHEKEGEDGYGKLGRQDGDEEFEEEEEESENKSMDTDPETIRDEEETGDHSMDDSSEDGKMETKSDHEEDNMEDGM

- binding (INTS10-C2S (human)): binds
- binding (2SC-INTS13ΔC (human)): binds
B4: ZNF609 (protein, UniProt O15014 1-1411)
chain: MSLSSGASGGKGVDANPVETYDSGDEWDIGVGNLIIDLDADLEKDQQKLEMSGSKEVGIPAPNAVATLPDNIKFVTPVPGPQGKEGKSKSKRSKSGKDTSKPTPGTSLFTPSEGAASKKEVQGRSGDGANAGGLVAAIAPKGSEKAAKASRSVAGSKKEKENSSSKSKKERSEGVGTCSEKDPGVLQPVPLGGRGGQYDGSAGVDTGAVEPLGSIAIEPGAALNPLGTKPEPEEGENECRLLKKVKSEKMESPVSTPAVLPIHLLVPVVNNDISSPCEQIMVRTRSVGVNTCDVALATEPECLGPCEPGTSVNLEGIVWQETEDGMLVVNVTWRNKTYVGTLLDCTRHDWAPPRFCDSPTSDLEMRNGRGRGKRMRPNSNTPVNETATASDSKGTSNSSKTRAGANSKGRRGSQNSSEHRPPASSTSEDVKASPSSANKRKNKPLSDMELNSSSEDSKGSKRVRTNSMGSATGPLPGTKVEPTVLDRNCPSPVLIDCPHPNCNKKYKHINGLKYHQAHAHTDDDSKPEADGDSEYGEEPILHADLGSCNGASVSQKGSLSPARSATPKVRLVEPHSPSPSSKFSTKGLCKKKLSGEGDTDLGALSNDGSDDGPSVMDETSNDAFDSLERKCMEKEKCKKPSSLKPEKIPSKSLKSARPIAPAIPPQQIYTFQTATFTAASPGSSSGLTATVAQAMPNSPQLKPIQPKPTVMGEPFTVNPALTPAKDKKKKDKKKKESSKELESPLTPGKVCRAEEGKSPFRESSGDGMKMEGLLNGSSDPHQSRLASIKAEADKIYSFTDNAPSPSIGGSSRLENTTPTQPLTPLHVVTQNGAEASSVKTNSPAYSDISDAGEDGEGKVDSVKSKDAEQLVKEGAKKTLFPPQPQSKDSPYYQGFESYYSPSYAQSSPGALNPSSQAGVESQALKTKRDEEPESIEGKVKNDICEEKKPELSSSSQQPSVIQQRPNMYMQSLYYNQYAYVPPYGYSDQSYHTHLLSTNTAYRQQYEEQQKRQSLEQQQRGVDKKAEMGLKEREAALKEEWKQKPSIPPTLTKAPSLTDLVKSGPGKAKEPGADPAKSVIIPKLDDSSKLPGQAPEGLKVKLSDASHLSKEASEAKTGAECGRQAEMDPILWYRQEAEPRMWTYVYPAKYSDIKSEDERWKEERDRKLKEERSRSKDSVPKEDGKESTSSDCKLPTSEESRLGSKEPRPSVHVPVSSPLTQHQSYIPYMHGYSYSQSYDPNHPSYRSMPAVMMQNYPGSYLPSSYSFSPYGSKVSGGEDADKARASPSVTCKSSSESKALDILQQHASHYKSKSPTISDKTSQERDRGGCGVVGGGGSCSSVGGASGGERSVDRPRTSPSQRLMSTHHHHHHLGYSLLPAQYNLPYAAGLSSTAIVASQQGSTPSLYPPPRR

- binding (2SC-INTS13ΔC (human)): binds
B5: ZEB1 (protein, UniProt P37275 1-1124)
chain: MADGPRCKRRKQANPRRNNVTNYNTVVETNSDSDDEDKLHIVEEESVTDAADCEGVPEDDLPTDQTVLPGRSSEREGNAKNCWEDDRKEGQEILGPEAQADEAGCTVKDDECESDAENEQNHDPNVEEFLQQQDTAVIFPEAPEEDQRQGTPEASGHDENGTPDAFSQLLTCPYCDRGYKRFTSLKEHIKYRHEKNEDNFSCSLCSYTFAYRTQLERHMTSHKSGRDQRHVTQSGCNRKFKCTECGKAFKYKHHLKEHLRIHSGEKPYECPNCKKRFSHSGSYSSHISSKKCISLIPVNGRPRTGLKTSQCSSPSLSASPGSPTRPQIRQKIENKPLQEQLSVNQIKTEPVDYEFKPIVVASGINCSTPLQNGVFTGGGPLQATSSPQGMVQAVVLPTVGLVSPISINLSDIQNVLKVAVDGNVIRQVLENNQANLASKEQETINASPIQQGGHSVISAISLPLVDQDGTTKIIINYSLEQPSQLQVVPQNLKKENPVATNSCKSEKLPEDLTVKSEKDKSFEGGVNDSTCLLCDDCPGDINALPELKHYDLKQPTQPPPLPAAEAEKPESSVSSATGDGNLSPSQPPLKNLLSLLKAYYALNAQPSAEELSKIADSVNLPLDVVKKWFEKMQAGQISVQSSEPSSPEPGKVNIPAKNNDQPQSANANEPQDSTVNLQSPLKMTNSPVLPVGSTTNGSRSSTPSPSPLNLSSSRNTQGYLYTAEGAQEEPQVEPLDLSLPKQQGELLERSTITSVYQNSVYSVQEEPLNLSCAKKEPQKDSCVTDSEPVVNVIPPSANPINIAIPTVTAQLPTIVAIADQNSVPCLRALAANKQTILIPQVAYTYSTTVSPAVQEPPLKVIQPNGNQDERQDTSSEGVSNVEDQNDSDSTPPKKKMRKTENGMYACDLCDKIFQKSSSLLRHKYEHTGKRPHECGICKKAFKHKHHLIEHMRLHSGEKPYQCDKCGKRFSHSGSYSQHMNHRYSYCKREAEERDSTEQEEAGPEILSNEHVGARASPSQGDSDERESLTREEDEDSEKEEEEEDKEMEELQEEKECEKPQGDEEEEEEEEEVEEEEVEEAENEGEEAKTEGLMKDDRAESQASSLGQKVGESSEQVSEEKTNEA

- binding (INTS10-C2S (human)): binds
- binding (2SC-INTS13ΔC (human)): binds
B6: ZNF655 (protein, UniProt Q8N720 1-491)
chain: MEEIPAQEAAGSPRVQFQSLETQSECLSPEPQFVQDTDMEQGLTGDGETREENKLLIPKQKISEEVHSYKVRVGRLKHDITQVPETREVYKSEDRLERLQEILRKFLYLEREFRQITISKETFTSEKNNECHEPEKSFSLDSTIDADQRVLRIQNTDDNDKYDMSFNQNSASGKHEHLNLTEDFQSSECKESLMDLSHLNKWESIPNTEKSYKCDVCGKIFHQSSALTRHQRIHTREKPYKCKECEKSFSQSSSLSRHKRIHTREKPYKCEASDKSCEASDKSCSPSSGIIQHKKIHTRAKSYKCSSCERVFSRSVHLTQHQKIHKEMPCKCTVCGSDFCHTSYLLEHQRVHHEEKAYEYDEYGLAYIKQQGIHFREKPYTCSECGKDFRLNSHLIQHQRIHTGEKAHECNECGKAFSQTSCLIQHHKMHRKEKSYECNEYEGSFSHSSDLILQQEVLTRQKAFDCDVWEKNSSQRAHLVQHQSIHTKENS
